From PubChem BioAssay record AID1963991 (NCATS, 2024).

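Viability of UOK109 TFE3-fusion renal carcinoma cells after 48 h of compound exposure, read as ATP luminescence with CellTiter-Glo.
Each compound was run as a concentration series, and the potency comes from that titration.
The number is the fitted AC50 for loss of viability; a lower value means a more potent compound.
All of these compounds are filed inconclusive. An active call needs an area-under-curve z-score below -0.8 in all three TFE3-fusion lines, and an inactive call needs flat class-4 curves in all three.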

Values are in µM.
Every entry below has the call inconclusive.
Only part of the assay is shown, chiefly results filed as inconclusive.
Potencies fitted to partial, single-point or poorly fitting curves are rough.
Some entries filed as inconclusive have a full curve.
The first word of each remark tells which way the curve ran; it can be opposite to the aim of the assay.
Activity scores are not listed here.

{"compound": "CC=C(C)C(=O)N[C@@H](c1ccccc1)[C@@H](O)C(=O)O[C@H]1C[C@@]2(O)[C@@H](OC(=O)c3ccccc3)[C@@H]3[C@]4(OC(C)=O)CO[C@@H]4C[C@H](O)[C@@]3(C)C(=O)[C@H](OC(C)=O)C(=C1C)C2(C)C", "Potency (µM)": "0.01663", "curve": "falling, full curve"}
{"compound": "C[C@]12CCC(=O)C(O)=C1CC[C@@H]1[C@H]3CCC(=O)[C@@]3(C)CC[C@@H]12", "Potency (µM)": "1.865"}
{"compound": "N#CCNC(=O)c1ccc(-c2ccnc(Nc3ccc(N4CCOCC4)cc3)n2)cc1", "tested on / at": "active = Z-AUC below -0.8 in all three lines", "Potency (µM)": "16.63", "curve": "falling, partial curve"}
{"compound": "CC1=C(CC(=O)O)c2cc(F)ccc2C1=Cc1ccc(S(C)=O)cc1", "stereo": "stereo not shown", "tested on / at": "active = Z-AUC below -0.8 in all three lines", "Potency (µM)": "9.35", "curve": "falling, partial curve"}
{"compound": "CCNC(=O)Nc1ccc(-c2nc3c(c(N4CCOC[C@H]4C)n2)CCN(C2COC2)C3)cc1", "tested on / at": "active = Z-AUC below -0.8 in all three lines", "Potency (µM)": "5.899", "curve": "falling, partial curve"}
{"compound": "O=C(CCCCCCC(=O)Nc1ccc([C@H]2O[C@@H](CSc3nc(-c4ccccc4)c(-c4ccccc4)o3)C[C@@H](c3ccc(CO)cc3)O2)cc1)NO", "tested on / at": "active = Z-AUC below -0.8 in all three lines", "Potency (µM)": "20.93", "curve": "falling, partial curve"}
{"compound": "CC(O)(CS(=O)(=O)c1ccc(F)cc1)C(=O)Nc1ccc(C#N)c(C(F)(F)F)c1", "stereo": "stereo not shown", "Potency (µM)": "10.49", "curve": "falling, partial curve"}
{"compound": "CN1CCN(C(=O)O[C@H]2c3nccnc3C(=O)N2c2ccc(Cl)cn2)CC1", "Potency (µM)": "1.663"}
{"compound": "COc1cccc2c1C(=O)c1c(O)c3c(c(O)c1C2=O)C[C@@](O)(C(=O)CO)C[C@@H]3O[C@H]1C[C@H](N)[C@H](OC2CCCCO2)[C@H](C)O1", "stereo": "stereo partly shown", "tested on / at": "active = Z-AUC below -0.8 in all three lines", "Potency (µM)": "1.663", "curve": "falling, full curve"}
{"compound": "Nc1nc(N)c2nc(CNc3ccc(C(=O)NC(CCC(=O)O)C(=O)O)cc3)cnc2n1", "stereo": "stereo not shown", "tested on / at": "active = Z-AUC below -0.8 in all three lines", "Potency (µM)": "20.93", "curve": "falling, partial curve, poor fit"}
{"compound": "O=C(O)c1ccc2cc(-c3ccc(O)c(C45CC6CC(CC(C6)C4)C5)c3)ccc2c1", "tested on / at": "active = Z-AUC below -0.8 in all three lines", "Potency (µM)": "3.317", "curve": "falling, full curve"}
{"compound": "CNC(=O)c1cc(Oc2ccc(NC(=O)Nc3cc(C(C)(C)C)nn3-c3ccc4ncccc4c3)c(F)c2)ccn1", "tested on / at": "active = Z-AUC below -0.8 in all three lines", "Potency (µM)": "1.482", "curve": "falling, full curve"}
{"compound": "Cc1nc(-c2ccc(-c3ccc(C(=O)N4CCc5cc6c(cc54)C4(CCN(C)CC4)CO6)cc3)c(C)c2)no1", "Potency (µM)": "7.427", "curve": "rising, partial curve"}
{"compound": "CC(N[C@H]1CCCC[C@H]1NC(=O)c1ccc(Cl)cc1)c1cccc2ccccc12", "stereo": "stereo partly shown", "tested on / at": "active = Z-AUC below -0.8 in all three lines", "Potency (µM)": "1.663", "curve": "falling, full curve"}
{"compound": "CC[C@H]1OC(=O)[C@H](C)C(=O)[C@H](C)[C@@H](O[C@H]2O[C@H](C)C[C@H](N(C)C)[C@@H]2O)[C@](C)(OC)C[C@@H](C)C(=O)[C@H](C)[C@H]2N(CCCCn3cnc(-c4cccnc4)c3)C(=O)O[C@]12C", "tested on / at": "active = Z-AUC below -0.8 in all three lines", "Potency (µM)": "18.65", "curve": "falling, partial curve"}
{"compound": "CC(C)(C)c1[nH]cnc1C=c1[nH]c(=O)c(=Cc2ccccc2)[nH]c1=O", "tested on / at": "active = Z-AUC below -0.8 in all three lines", "Potency (µM)": "38.2"}
{"compound": "CCOC(=O)[C@H](CCc1ccccc1)N[C@H]1CS[C@H](c2cccs2)CN(CC(=O)O)C1=O", "tested on / at": "active = Z-AUC below -0.8 in all three lines", "Potency (µM)": "0.935", "curve": "falling, full curve"}
{"compound": "C[C@]12CC[C@H]3[C@@H](CCC4=CC(=O)CC[C@@]43C)[C@H]1CC[C@H]2OC(=O)CCC1CCCC1", "Potency (µM)": "7.427", "curve": "falling, partial curve"}
{"compound": "COc1c(C)c2c(c(O)c1CC=C(C)CCC(=O)O)C(=O)OC2", "tested on / at": "active = Z-AUC below -0.8 in all three lines", "Potency (µM)": "3.722", "curve": "falling, full curve"}

2 of the entries, repeated:

For CC1=C(CC(=O)O)c2cc(F)ccc2C1=Cc1ccc(S(C)=O)cc1 (stereo not shown) [active = Z-AUC below -0.8 in all three lines] the result was Potency 9.35 µM (falling, partial curve).
For CN1CCN(C(=O)O[C@H]2c3nccnc3C(=O)N2c2ccc(Cl)cn2)CC1 the result was Potency 1.663 µM.